# Source: PMC8632500, “Identification of Conserved and Divergent Strigolactone Receptors in Sugarcane Reveals a Key Residue Crucial for Plant Branching Control” (Frontiers in Plant Science, 2021)
# These are yes or no findings as the source states them, for the method shown. Some binding calls cover weakened binding; strength is not graded here. Tags and fused reporters may be left off the sequences shown.
# B1: AD-AtMAX2 (Arabidopsis thaliana MORE AXILLARY GROWTH2 fused to GAL4-AD), Q9SIM9 1-693 (protein)
# chain: MASTTLSDLPDVILSTISSLVSDSRARNSLSLVSHKFLALERSTRSHLTIRGNARDLSLVPDCFRSISHLDLSFLSPWGHTLLASLPIDHQNLLALRLKFCFPFVESLNVYTRSPSSLELLLPQWPRIRHIKLLRWHQRASQIPTGGDFVPIFEHCGGFLESLDLSNFYHWTEDLPPVLLRYADVAARLTRLDLLTASFTEGYKSSEIVSITKSCPNLKTFRVACTFDPRYFEFVGDETLSAVATSSPKLTLLHMVDTASLANPRAIPGTEAGDSAVTAGTLIEVFSGLPNLEELVLDVGKDVKHSGVALEALNSKCKKLRVLKLGQFQGVCSATEWRRLDGVALCGGLQSLSIKNSGDLTDMGLVAIGRGCCKLTTFEIQGCENVTVDGLRTMVSLRSKTLTDVRISCCKNLDTAASLKAIEPICDRIKRLHIDCVWSGSEDEEVEGRVETSEADHEEEDDGYERSQKRCKYSFEEEHCSTSDVNGFCSEDRVWEKLEYLSLWINVGEFLTPLPMTGLDDCPNLEEIRIKIEGDCRGKRRPAEPEFGLSCLALYPKLSKMQLDCGDTIGFALTAPPMQMDLSLWERFFLTGIGSLSLSELDYWPPQDRDVNQRSLSLPGAGLLQECLTLRKLFIHGTAHEHFMNFLLRIPNLRDVQLRADYYPAPENDMSTEMRVGSCSRFEDQLNSRNIID
# Target: T1, BD-AtD14 (Arabidopsis thaliana D14 fused to GAL4-BD) (Arabidopsis thaliana), Q9SQR3
# T1 chain: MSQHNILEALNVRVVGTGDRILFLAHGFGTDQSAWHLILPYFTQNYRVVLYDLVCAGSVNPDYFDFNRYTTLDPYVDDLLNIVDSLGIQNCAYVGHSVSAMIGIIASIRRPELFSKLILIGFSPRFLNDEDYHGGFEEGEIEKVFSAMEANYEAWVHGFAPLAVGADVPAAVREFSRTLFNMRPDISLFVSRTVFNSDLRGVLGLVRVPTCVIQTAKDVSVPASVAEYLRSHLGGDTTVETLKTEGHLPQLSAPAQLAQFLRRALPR
# Assay: two-hybrid; yeast AH109; D14 proteins as GAL4-BD baits, MAX2/D3 and SMXL7/D53 as GAL4-AD preys; serial 10-fold dilutions spotted on selective medium (SD/-Leu/-Trp/-His/-Ala as printed) with 5 μM rac-GR24 or DMSO; 4 days at 30°C
# Details: remark: other sources report otherwise
binder,measurement,value
B1,binding,binds
